Assay results: PMC12040169 (PLOS Biology, 2025)
The other results are listed elsewhere or left out.

Each molecule was assayed on T1, CTL2-GFP (C. trachomatis L2/434/Bu, GFP-expressing). Conditions: bulk GFP, single well; 28.5 h, 10 µM; inhibitor.
T1 construct: L2/434/Bu, GFP-expressing
Set-up: species or system HeLa; Intracellular C. trachomatis growth in HeLa cells, bulk GFP fluorescence relative to DMSO

Row | Compound | % of control remaining [%]
1 | CC1CCCN(C(=O)Cn2ncn3c(cc4ccsc43)c2=O)C1 (stereo not drawn) [CBK284245] | 137.084
2 | N#Cc1c(NC(=O)CSc2nnnn2-c2ccc(C(=O)O)cc2)sc2c1CCCC2 [CBK299876] | 172.045
3 | CCCNc1nc(O)cc(C(F)(F)F)n1 [CBK000214] | 121.733
4 | COC(=O)CCN(C)CCC(=O)OC [CBK264539C] | 135.67
5 | CCn1cc(NS(=O)(=O)c2ccc(N3CCCC3=O)cc2)cn1 [CBK305922] | 116.815
6 | OC(CN1CCC2(CC1)CC(O)c1cc(F)ccc1O2)c1ccc(-c2ccccc2)cc1 (stereo not drawn) [CBK286331] | 69.0364
7 | CC(=O)NCC12CC3CC(C1)CC(C(=O)O)(C3)C2 [CBK286768] | 140.892
8 | O=C(CN1C2CCC1CC(O)(c1ccco1)C2)N1c2ccccc2CCc2ccccc21 (stereo not drawn) [CBK286168] | 114.249
9 | COc1ccccc1N1CCN(C(=O)CN2C(=O)c3ccccc3C2=O)CC1 [CBK091501] | 120.276
10 | Cc1ccc(C(=O)N2CN(C(=O)CNCC(C)C)CC2(C)C)cc1 [CBK089576C] | 108.242
11 | CC1CCc2c(sc(NC(=O)c3cc(-c4cccnc4)nc4ccc(Cl)cc34)c2C(N)=O)C1 (stereo not drawn) [CBK267762] | 98.5859
12 | Cc1nccn1CCNC(=O)c1ccccc1Cn1cccn1 [CBK281979] | 117.826
13 | O=C(O)c1cn(C2CC2)c2cc(N3CCN(C(=O)C4CCCO4)CC3)c(F)cc2c1=O (stereo not drawn) [CBK297139] | 8.519
14 | Cn1nc(-c2ccc(F)cc2)cc1[C@H]1CN2CC[C@H]1C[C@@H]2CNS(C)(=O)=O [CBK289109] | 111.268
15 | CC(C)(C)c1cc(C(=O)N2CCn3cc(C(F)(F)F)nc3C2)[nH]n1 [CBK284748] | 101.916
16 | CCCN(c1nc(C)c(Br)c(OC)n1)S(=O)(=O)c1ccc(C)cc1 [CBK028072] | 76.4047
17 | O=C(c1cccnc1)N1CCN(S(=O)(=O)c2ccc([N+](=O)[O-])cc2)CC1 [CBK264300] | 120.48
18 | CC(C)CC(=O)NCCn1nc(-c2ccccc2F)cc1CN(C)C [CBK282005] | 137.005
19 | C=CCNC(=O)Cn1c(-c2ccc(OC)cc2)cc2cccnc21 [CBK285363] | 119.976
20 | CCCS(=O)(=O)Nc1ccc(=O)n2c1[C@@H]1C[C@@H](CN(C(=O)c3ccc(OC)cc3)C1)C2 [CBK288711] | 143.601
21 | CCOC(=O)c1cc(S(=O)(=O)NC2CCN(C(=O)OCC)CC2)cn1C [CBK304665] | 123.189

Some of these compounds in order of number of heavy atoms, ascending.
Row | Compound | % of control remaining [%]
3 | CCCNc1nc(O)cc(C(F)(F)F)n1 [CBK000214] | 121.733
9 | COc1ccccc1N1CCN(C(=O)CN2C(=O)c3ccccc3C2=O)CC1 [CBK091501] | 120.276
6 | OC(CN1CCC2(CC1)CC(O)c1cc(F)ccc1O2)c1ccc(-c2ccccc2)cc1 (stereo not drawn) [CBK286331] | 69.0364
